Test results as given in paper doi:10.1101/2024.05.17.594671.
Results are given in words; binding and its absence hold for the method and conditions named. Some binding calls cover weakened binding; strength is not graded here. Where a sequence is shown, tags or fusion partners need not be part of it.

Protein sequences, listed by entry. Tags and fused reporters are not part of them.
UniProt O95166: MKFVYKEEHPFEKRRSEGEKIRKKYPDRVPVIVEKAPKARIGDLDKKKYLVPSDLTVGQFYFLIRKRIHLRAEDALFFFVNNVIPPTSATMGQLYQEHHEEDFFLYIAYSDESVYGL

What was measured:
[1] = molecular target: T1, GFP-NBR1 (recombinant, purified) (UniProt Q14596); assay: microscopy-based protein-protein interaction assay
T1 sequence: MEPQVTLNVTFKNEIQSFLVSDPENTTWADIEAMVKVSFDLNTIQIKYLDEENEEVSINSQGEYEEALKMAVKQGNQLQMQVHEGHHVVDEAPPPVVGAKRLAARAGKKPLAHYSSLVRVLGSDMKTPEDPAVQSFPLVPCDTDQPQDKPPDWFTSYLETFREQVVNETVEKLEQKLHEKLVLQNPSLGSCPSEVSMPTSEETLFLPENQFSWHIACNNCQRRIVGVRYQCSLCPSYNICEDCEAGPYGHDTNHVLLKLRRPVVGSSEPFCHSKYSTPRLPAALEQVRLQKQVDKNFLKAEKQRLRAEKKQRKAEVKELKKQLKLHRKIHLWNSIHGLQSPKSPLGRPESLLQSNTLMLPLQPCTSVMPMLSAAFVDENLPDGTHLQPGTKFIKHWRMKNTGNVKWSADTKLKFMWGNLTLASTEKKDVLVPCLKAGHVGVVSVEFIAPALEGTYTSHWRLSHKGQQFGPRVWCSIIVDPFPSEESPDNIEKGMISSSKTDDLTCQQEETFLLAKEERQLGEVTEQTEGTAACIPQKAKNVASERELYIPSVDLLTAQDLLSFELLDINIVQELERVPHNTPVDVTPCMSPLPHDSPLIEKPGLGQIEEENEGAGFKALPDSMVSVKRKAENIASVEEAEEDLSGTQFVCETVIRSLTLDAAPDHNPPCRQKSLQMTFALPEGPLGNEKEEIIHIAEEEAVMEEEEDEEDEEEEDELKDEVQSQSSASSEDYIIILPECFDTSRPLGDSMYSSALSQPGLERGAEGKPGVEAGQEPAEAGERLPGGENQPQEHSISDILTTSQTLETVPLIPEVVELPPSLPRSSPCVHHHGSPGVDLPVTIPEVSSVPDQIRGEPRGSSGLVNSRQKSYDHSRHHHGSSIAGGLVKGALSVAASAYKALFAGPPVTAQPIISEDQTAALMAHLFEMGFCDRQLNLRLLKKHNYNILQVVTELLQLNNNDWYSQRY

[2] = molecular target: T2, NBR1 (untagged, recombinant) (UniProt Q14596); assay: in vitro condensation assay
T2 sequence: T1 sequence

binding [1]: binds
binding [2]: binds
Substance: GABARAP (from UniProt O95166 1-117)
